{"source": "paper doi:10.1101/2020.03.26.992446", "key": {"DJ-1 D189A (human)": {"molecular_target": "DJ-1 D189A (human) (UniProt Q99497)", "test": "cross-linking"}, "DJ-1 D189L (human)": {"molecular_target": "DJ-1 D189L (human) (UniProt Q99497)", "test": "cross-linking"}, "DJ-1 K188E (human)": {"molecular_target": "DJ-1 K188E (human) (UniProt Q99497)", "test": "cross-linking"}, "DJ-1 K188R (human)": {"molecular_target": "DJ-1 K188R (human) (UniProt Q99497)", "test": "cross-linking"}, "[1]": {"molecular_target": "DJ-1 L187E (in DJ-1-/- MEFs) (human) (UniProt Q99497)", "test": "cross-linking"}, "DJ-1 ΔC1 (human)": {"molecular_target": "DJ-1 ΔC1 (human) (UniProt Q99497)", "test": "cross-linking"}, "DJ-1 ΔC2 (human)": {"molecular_target": "DJ-1 ΔC2 (human) (UniProt Q99497)", "test": "cross-linking"}, "[2]": {"molecular_target": "DJ-1 ΔC3 (in DJ-1-/- MEFs) (human) (UniProt Q99497)", "test": "cross-linking"}, "[3]": {"molecular_target": "DJ-1 ΔC3 (in HEK293T cells) (human) (UniProt Q99497)", "test": "cross-linking"}, "DJ-1 ΔC6 (human)": {"molecular_target": "DJ-1 ΔC6 (human) (UniProt Q99497)", "test": "cross-linking"}, "DJ-1 ΔC15 (human)": {"molecular_target": "DJ-1 ΔC15 (human) (UniProt Q99497)", "test": "cross-linking"}, "DJ-1 ΔC17 (human)": {"molecular_target": "DJ-1 ΔC17 (human) (UniProt Q99497)", "test": "cross-linking"}, "DJ-1 ΔC23 (human)": {"molecular_target": "DJ-1 ΔC23 (human) (UniProt Q99497)", "test": "cross-linking"}, "DJ-1 ΔC29 (human)": {"molecular_target": "DJ-1 ΔC29 (human) (UniProt Q99497)", "test": "cross-linking"}, "[4]": {"molecular_target": "T1, Flag-tagged DJ-1 (human), Q99497", "T1 chain": "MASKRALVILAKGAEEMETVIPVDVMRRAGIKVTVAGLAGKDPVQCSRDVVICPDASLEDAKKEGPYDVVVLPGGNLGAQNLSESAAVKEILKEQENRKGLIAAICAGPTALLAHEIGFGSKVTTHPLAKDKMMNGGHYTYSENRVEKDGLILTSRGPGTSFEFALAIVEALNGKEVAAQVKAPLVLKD", "test": "co-IP", "conditions": "remark: other sources report otherwise"}, "[5]": {"molecular_target": "T2, Myc-tagged DJ-1 (human), Q99497", "T2 chain": "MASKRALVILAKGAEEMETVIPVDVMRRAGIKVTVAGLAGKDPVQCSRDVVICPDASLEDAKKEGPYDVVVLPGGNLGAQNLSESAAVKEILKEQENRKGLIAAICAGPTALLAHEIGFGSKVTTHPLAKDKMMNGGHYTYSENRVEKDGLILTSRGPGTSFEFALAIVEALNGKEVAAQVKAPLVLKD", "test": "cross-linking", "conditions": "remark: other sources report otherwise"}, "[6]": {"molecular_target": "T1, Flag-tagged DJ-1 (human), Q99497", "test": "cross-linking", "conditions": "remark: other sources report otherwise"}, "[7]": {"molecular_target": "T3, purified DJ-1 WT (N-terminal 6×His-tagged) (human), Q99497", "T3 chain": "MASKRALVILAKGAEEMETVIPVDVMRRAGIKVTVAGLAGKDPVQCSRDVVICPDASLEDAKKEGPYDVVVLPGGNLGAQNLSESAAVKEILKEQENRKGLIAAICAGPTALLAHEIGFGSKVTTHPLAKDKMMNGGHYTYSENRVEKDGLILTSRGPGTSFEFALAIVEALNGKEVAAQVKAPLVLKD", "test": "cross-linking", "conditions": "remark: other sources report otherwise"}, "[8]": {"molecular_target": "T4, human DJ-1 WT (reintroduced into DJ-1-/- MEFs) (human), Q99497", "T4 chain": "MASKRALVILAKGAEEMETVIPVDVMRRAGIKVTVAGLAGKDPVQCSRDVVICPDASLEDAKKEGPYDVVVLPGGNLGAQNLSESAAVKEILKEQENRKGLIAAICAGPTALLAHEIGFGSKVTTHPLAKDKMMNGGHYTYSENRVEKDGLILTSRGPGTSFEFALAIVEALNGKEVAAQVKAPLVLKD", "test": "cross-linking", "conditions": "remark: other sources report otherwise"}, "[9]": {"molecular_target": "T2, Myc-tagged DJ-1 (human), Q99497", "test": "co-IP", "conditions": "remark: other sources report otherwise"}}, "note": "No constants are given. Whether binding was seen depends on the method and setting. For part of these data: In cells and extracts the contact can be indirect. Some results given as binding are weak or reduced against the parent protein; the word gives no strength. For part of these data: Sequences can lack the tags named with a protein."}
{"molecule": "DJ-1 D189A (from UniProt Q99497 1-189)", "values": [{"measurement": "binding", "setting": "DJ-1 D189A (human)", "value": "binds"}]}
{"molecule": "DJ-1 D189L (from UniProt Q99497 1-189)", "values": [{"measurement": "binding", "setting": "DJ-1 D189L (human)", "value": "binds"}]}
{"molecule": "DJ-1 K188E (from UniProt Q99497 1-189)", "values": [{"measurement": "binding", "setting": "DJ-1 K188E (human)", "value": "binds"}]}
{"molecule": "DJ-1 K188R (from UniProt Q99497 1-189)", "values": [{"measurement": "binding", "setting": "DJ-1 K188R (human)", "value": "binds"}]}
{"molecule": "DJ-1 L187E (in DJ-1-/- MEFs) (from UniProt Q99497 1-189)", "values": [{"measurement": "binding", "setting": "[1]", "value": "no binding"}]}
{"molecule": "DJ-1 ΔC1 (from UniProt Q99497 1-188) (domain or fragment)", "values": [{"measurement": "binding", "setting": "DJ-1 ΔC1 (human)", "value": "binds"}]}
{"molecule": "DJ-1 ΔC2 (from UniProt Q99497 1-187) (domain or fragment)", "values": [{"measurement": "binding", "setting": "DJ-1 ΔC2 (human)", "value": "binds"}]}
{"molecule": "DJ-1 ΔC3 (in DJ-1-/- MEFs) (from UniProt Q99497 1-186) (domain or fragment)", "values": [{"measurement": "binding", "setting": "[2]", "value": "no binding"}]}
{"molecule": "DJ-1 ΔC3 (in HEK293T cells) (from UniProt Q99497 1-186) (domain or fragment)", "values": [{"measurement": "binding", "setting": "[3]", "value": "no binding"}]}
{"molecule": "DJ-1 ΔC6 (from UniProt Q99497 1-183) (domain or fragment)", "values": [{"measurement": "binding", "setting": "DJ-1 ΔC6 (human)", "value": "no binding"}]}
{"molecule": "DJ-1 ΔC15 (from UniProt Q99497 1-174) (domain or fragment)", "values": [{"measurement": "binding", "setting": "DJ-1 ΔC15 (human)", "value": "no binding"}]}
{"molecule": "DJ-1 ΔC17 (from UniProt Q99497 1-172) (domain or fragment)", "values": [{"measurement": "binding", "setting": "DJ-1 ΔC17 (human)", "value": "no binding"}]}
{"molecule": "DJ-1 ΔC23 (from UniProt Q99497 1-166) (domain or fragment)", "values": [{"measurement": "binding", "setting": "DJ-1 ΔC23 (human)", "value": "no binding"}]}
{"molecule": "DJ-1 ΔC29 (from UniProt Q99497 1-160) (domain or fragment)", "values": [{"measurement": "binding", "setting": "DJ-1 ΔC29 (human)", "value": "no binding"}]}
{"molecule": "Myc-tagged DJ-1, Q99497 1-189 (protein) MASKRALVILAKGAEEMETVIPVDVMRRAGIKVTVAGLAGKDPVQCSRDVVICPDASLEDAKKEGPYDVVVLPGGNLGAQNLSESAAVKEILKEQENRKGLIAAICAGPTALLAHEIGFGSKVTTHPLAKDKMMNGGHYTYSENRVEKDGLILTSRGPGTSFEFALAIVEALNGKEVAAQVKAPLVLKD", "values": [{"measurement": "binding", "setting": "[4]", "value": "binds"}, {"measurement": "binding", "setting": "[5]", "value": "binds"}, {"measurement": "binding", "setting": "[6]", "value": "binds"}]}
{"molecule": "purified DJ-1 WT (N-terminal 6×His-tagged), Q99497 1-189 (natural protein) MASKRALVILAKGAEEMETVIPVDVMRRAGIKVTVAGLAGKDPVQCSRDVVICPDASLEDAKKEGPYDVVVLPGGNLGAQNLSESAAVKEILKEQENRKGLIAAICAGPTALLAHEIGFGSKVTTHPLAKDKMMNGGHYTYSENRVEKDGLILTSRGPGTSFEFALAIVEALNGKEVAAQVKAPLVLKD", "values": [{"measurement": "binding", "setting": "[7]", "value": "binds"}]}
{"molecule": "human DJ-1 WT (reintroduced into DJ-1-/- MEFs), Q99497 1-189 (protein) MASKRALVILAKGAEEMETVIPVDVMRRAGIKVTVAGLAGKDPVQCSRDVVICPDASLEDAKKEGPYDVVVLPGGNLGAQNLSESAAVKEILKEQENRKGLIAAICAGPTALLAHEIGFGSKVTTHPLAKDKMMNGGHYTYSENRVEKDGLILTSRGPGTSFEFALAIVEALNGKEVAAQVKAPLVLKD", "values": [{"measurement": "binding", "setting": "[8]", "value": "binds"}]}
{"molecule": "Flag-tagged DJ-1, Q99497 1-189 (protein) MASKRALVILAKGAEEMETVIPVDVMRRAGIKVTVAGLAGKDPVQCSRDVVICPDASLEDAKKEGPYDVVVLPGGNLGAQNLSESAAVKEILKEQENRKGLIAAICAGPTALLAHEIGFGSKVTTHPLAKDKMMNGGHYTYSENRVEKDGLILTSRGPGTSFEFALAIVEALNGKEVAAQVKAPLVLKD", "values": [{"measurement": "binding", "setting": "[9]", "value": "binds"}, {"measurement": "binding", "setting": "[6]", "value": "binds"}]}
